The record followed here is article PMC3744072.

By UniProt entry, the sequences of proteins in these tests, tags left out. Where a name states a change or a piece, a line headed by the entry shows the natural chain unless it says otherwise. Chains listed by the source or under a name are the forms on record and can include a tag or linker.
COMP DelD469 (mutant, mouse knock-in) (Q9R0G6, form named): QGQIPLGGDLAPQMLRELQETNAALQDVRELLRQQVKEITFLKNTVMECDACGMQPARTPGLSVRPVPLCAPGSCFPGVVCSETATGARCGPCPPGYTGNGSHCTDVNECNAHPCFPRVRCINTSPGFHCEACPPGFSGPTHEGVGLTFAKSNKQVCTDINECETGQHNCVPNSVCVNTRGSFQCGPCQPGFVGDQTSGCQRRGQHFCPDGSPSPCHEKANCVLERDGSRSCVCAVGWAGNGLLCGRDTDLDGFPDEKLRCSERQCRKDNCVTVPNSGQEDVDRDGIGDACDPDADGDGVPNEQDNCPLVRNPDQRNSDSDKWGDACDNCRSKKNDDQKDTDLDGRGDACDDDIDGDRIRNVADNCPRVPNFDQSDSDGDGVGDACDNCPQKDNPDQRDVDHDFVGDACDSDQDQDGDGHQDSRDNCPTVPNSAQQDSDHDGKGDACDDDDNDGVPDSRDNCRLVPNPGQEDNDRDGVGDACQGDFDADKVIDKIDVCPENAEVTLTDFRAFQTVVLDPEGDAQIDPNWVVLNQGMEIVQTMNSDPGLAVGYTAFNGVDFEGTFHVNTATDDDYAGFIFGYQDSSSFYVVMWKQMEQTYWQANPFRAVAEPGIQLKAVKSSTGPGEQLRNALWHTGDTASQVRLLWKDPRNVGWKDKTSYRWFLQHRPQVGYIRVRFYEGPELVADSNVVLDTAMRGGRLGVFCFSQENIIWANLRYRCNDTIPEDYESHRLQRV

This assay addresses COMP DelD469 (mutant, mouse knock-in) (mouse (endogenous in mouse chondrocytes)) (UniProt Q9R0G6). Briefly: non-reducing SDS-PAGE and Western blot; total protein lysates of isolated chondrocytes of 5-day-old mice, 4-12% gels, non-reduced against reduced (0.1 M DTT); oligomers assigned by apparent size.

Results are given in words; binding and its absence hold for the method and conditions named. Some entries that bind do so weakly or less than the wild type.

Turning to “COMP DelD469 (mutant, mouse knock-in) (from UniProt Q9R0G6 20-755)”, the binding entry is “binds”.
